From PubChem BioAssay AID2685 (National Center for Advancing Translational Sciences (NCATS), 2010)
The list shows a part of the results. The main result of the screen is listed elsewhere. These columns were measured beside it and carry no call. Most of these compounds were active or inconclusive in the main read-out, so they are no random draw. Potencies come from curve fits of mixed quality, noted in brackets.

Assay: qHTS Assay for Lipid Storage Modulators in Drosophila S3 Cells;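 for cell number change: cells counted by Cell Tracker Red CMTPX staining in the red channel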
Details: BODIPY lipid droplet fluorescence, 18-24 h; for cell number change: measured here: cell count max response, cells fed with added oleic acid
In short: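 Drosophila S3 cells loaded with oleic acid (400 uM, as added) and compounds at several concentrations; lipid droplets imaged by 488-nm laser-scanning cytometry, 500–530 nm intensity and object ratio to cell channel. Percent activity normalized to 20 uM Triacsin C.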

[1] = measured here: cell number channel AC50, cells fed with added oleic acid
[2] = measured here: lipid fluorescence (Fed channel) AC50, cells fed with added oleic acid

Row | SMILES | cell number change | AC50 [1] | AC50 [2]
1 | CCOC(=O)c1cccc(NC(=O)CSc2nnc(COc3ccccc3C)o2)c1 | 2.49% | 0.092 µM [rising, full curve, poor fit] | 2.06 µM [rising, single point]
2 | Cc1ncsc1C(=O)NCc1ccc(N2CCCC2=O)cc1 |  |  | 3.66 µM [falling, full curve]
3 | O=C(O)c1ccc(/C=N/n2c(C3CCCCC3)n[nH]c2=S)cc1 | 23.9% |  | 9.2 µM [rising, partial curve]
4 | O=C(NCc1ccco1)C1CCN(S(=O)(=O)c2ccccc2C(F)(F)F)CC1 | -21% |  | 0.058 µM [falling, full curve, poor fit]
5 | O=C(c1cccs1)N1N=C(c2ccccc2)CC1c1ccc(O)cc1 (stereo unspecified) |  | 0.461 µM [rising, full curve, poor fit] | 
6 | Cc1cc(C)n(-c2ccc(NC(=O)C3CCCCN3C(=O)c3ccoc3C)cc2)n1 (stereo unspecified) | -2.59% |  | 0.58 µM [rising, single point]
7 | O=C(NN1CCCCC1)c1ccccc1 | -6.59% |  | 
8 | CCc1ccc2oc(C(=O)NCc3ccc(S(N)(=O)=O)cc3)c(C)c2c1 | -21% | 0.58 µM [falling, single point] | 29.1 µM [rising, single point]
9 | O=C(CNC(=O)c1ccc(Cl)cc1)Nc1ccccc1C(F)(F)F | -18.4% |  | 1.46 µM [falling, partial curve]
10 | COc1cccc(NC(=O)CSc2nnc(-c3ccoc3C)n2-c2ccccc2)c1 | 103% | 23.1 µM [rising, partial curve] | 
11 | Cc1ccc(C2CC(=O)C=C(NCC(C)C)C2)cc1 (stereo unspecified) | 11.5% |  | 5.8 µM [rising, partial curve, poor fit]
12 | COC(=O)c1c(C)oc2ccc(NS(=O)(=O)c3cc(OC)ccc3OC)cc12 |  | 1.84 µM [rising, partial curve] | 1.84 µM [rising, partial curve]
13 | CCCC(=O)Nc1cc2c3c(c1)C(C)C(=O)N3CCC2 (stereo unspecified) | 13.7% | 0.731 µM [rising, partial curve, poor fit] | 
14 | CCn1cc(CN2CCN(CC(C)(C)C)C(CCO)C2)c2ccccc21 (stereo unspecified) | 23.8% |  | 6.51 µM [rising, single point]
15 | CN(C)CCCn1c(=O)n(CCc2ccccc2)c(=O)c2c3c(sc21)CCCCC3 | -12.7% | 0.651 µM [falling, full curve, poor fit] | 1.64 µM [falling, partial curve]
16 | Cn1cccc1C(=O)NC(=O)COC(=O)CCNS(=O)(=O)c1cccc(C(F)(F)F)c1 | -0.0684% |  | 0.92 µM [falling, full curve, poor fit]
17 | CCOc1ccc(C(=O)NCC(=O)N2CCN(c3ccc(C(F)(F)F)cn3)CC2)cc1 | -7.52% |  | 0.517 µM [rising, full curve]
18 | CCn1c(N2CCN(C(=S)Nc3ccc(OC)cc3)CC2)nc2ccccc21 | -39.6% | 29.1 µM [falling, single point] | 32.6 µM [falling, single point]
19 | COc1ccc(C(C)NC(=O)C23CC4CC(CC(C4)C2)C3)cc1 (stereo unspecified) | -0.985% |  | 13 µM [falling, partial curve, poor fit]

Row | SMILES | cell number change | AC50 [1] | AC50 [2]
20 | C/C(Cc1ccccc1)=N\NC(=O)CNC(=O)c1cccc(Br)c1 | -7.37% |  | 
21 | O=C(CN(Cc1ccccc1)C(=O)c1csnn1)NCc1ccccc1 | -6.97% | 6.51 µM [falling, single point] | 7.31 µM [falling, single point]
22 | COc1ccc(OCC(=O)NS(=O)(=O)c2ccccc2)cc1 | 15.5% |  | 0.13 µM [rising, partial curve, poor fit]
23 | CC(C)Cc1nc(Nc2ccc(S(=O)(=O)N3CCCC3)cc2)c2nnn(Cc3ccccc3)c2n1 | -18.3% |  | 18.4 µM [falling, single point]
24 | CCC(C)n1c(=O)c2sccc2n2c(CCCC(=O)N3CCC(C(N)=O)CC3)nnc12 (stereo unspecified) | -40.7% | 18.4 µM [falling, partial curve] | 0.146 µM [falling, full curve, poor fit]
25 | Cc1cc(CNC(=O)Cn2cc([N+](=O)[O-])cn2)c2ccccc2n1 | -19.5% |  | 6.51 µM [falling, single point]
26 | O=S(=O)(Nc1cccc(F)c1)c1cccc2nsnc12 | -14.2% |  | 
27 | COC(=O)c1cc(Cl)c(NC(=O)c2ccco2)cc1OC | -21.9% |  | 6.51 µM [rising, partial curve]
28 | CCn1c(COc2cccc(C)c2)nnc1SCC(=O)N1CCCC1 | 73.1% | 18.4 µM [rising, single point] | 
29 | O=C1CCCN1CC(CN1CCOCC1)Sc1nc2ccccc2c(=O)n1-c1ccccc1 (stereo unspecified) | -9.55% | 1.3 µM [rising, partial curve] | 
30 | Cn1c(=O)n(CC(N)=O)c(=O)c2c1nc1n2CCCN1Cc1ccccc1 | 15.5% |  | 25.9 µM [rising, single point]
31 | COc1ccc(NC2=NCC(Cc3ccc(Br)cc3)S2)cc1 (stereo unspecified) | -14% | 0.259 µM [rising, full curve, poor fit] | 1.84 µM [rising, partial curve]
32 | Cc1c(NC(=O)CCCN2C(=O)c3cccc4cccc(c34)C2=O)c(=O)n(-c2ccccc2)n1C | 4.33% | 0.13 µM [rising, partial curve, poor fit] | 
33 | Cc1nn(-c2ccccc2)c(N2CCCC2)c1/C=C1\N=C(c2ccc(F)cc2)OC1=O | 31.2% | 1.3 µM [rising, full curve, poor fit] | 
34 | CC1=C(C(=O)OCC(C)C)C(c2cc3c(cc2Br)OCO3)NC(=O)N1C (stereo unspecified) | 153% | 9.2 µM [rising, partial curve] | 9.2 µM [rising, partial curve]
35 | COC(=O)Cn1c(=N)n(CCN2CCCCC2)c2ccccc21 | 34.9% | 18.4 µM [rising, single point] | 
36 | CCCC(C)NC(=O)Cn1c(=O)c2c(ncn2CCC(C)C)n(Cc2ccccc2)c1=O (stereo unspecified) | 4.05% |  | 6.51 µM [rising, single point]
37 | Cc1nc2ccccc2nc(C)c1=NOCc1cccc(Cl)c1 | -0.275% |  | 1.64 µM [rising, full curve, poor fit]
38 | C=CCC(C(=O)Oc1c(C(C)(C)C)cc(C)cc1C(C)(C)C)c1ccccc1 (stereo unspecified) | 7.5% |  | 0.92 µM [rising, full curve]

Copied from above, compounds 22 to 23
Row | SMILES | cell number change | AC50 [1] | AC50 [2]
22 | COc1ccc(OCC(=O)NS(=O)(=O)c2ccccc2)cc1 | 15.5% |  | 0.13 µM [rising, partial curve, poor fit]
23 | CC(C)Cc1nc(Nc2ccc(S(=O)(=O)N3CCCC3)cc2)c2nnn(Cc3ccccc3)c2n1 | -18.3% |  | 18.4 µM [falling, single point]

Next structures:

Row | SMILES | cell number change | AC50 [1] | AC50 [2]
39 | CCc1cccc2c(C(=O)COC(=O)c3nn(C)c(=O)c4ccccc34)c[nH]c12 | -72.1% | 8.2 µM [falling, partial curve] | 6.51 µM [falling, partial curve]
40 | O=C(N/N=C\c1cccc(Br)c1)c1ccccc1-n1cccc1 | 23.3% | 1.03 µM [rising, partial curve, poor fit] | 2.06 µM [rising, partial curve]
41 | CCN(CC)c1ccc(NC(=O)c2ccc(Br)o2)c(C)c1 |  |  | 6.51 µM [rising, single point]
42 | Cc1ccc(CNC(=O)CCc2nnc3ccc(N4CCC5(CC4)OCCO5)nn23)cc1 | -18.3% |  | 29.1 µM [falling, single point]
43 | O=C(O)CC(c1cccc([N+](=O)[O-])c1)N1Cc2ccccc2C1=O (stereo unspecified) | -12.3% |  | 11.6 µM [falling, partial curve, poor fit]
44 | O=C(Nc1ccccc1OC(F)F)c1ccc(F)cc1 | -141% | 29.1 µM [falling, single point] | 0.651 µM [falling, single point]
45 | O=C(CCC(=O)N1CCN(c2cccc(Cl)c2)CC1)c1cccs1 |  | 3.66 µM [rising, single point] | 
46 | Nc1ccc(-n2nncc2-c2ccc(Cl)cc2)cc1 |  | 1.46 µM [rising, partial curve, poor fit] | 2.06 µM [rising, partial curve]
47 | CCOC(=O)C1CCN(c2cc3c(cc2NC(=O)c2ccccc2F)n(C)c(=O)n3C)CC1 | 6.84% | 0.517 µM [falling, full curve, poor fit] | 20.6 µM [falling, partial curve]
48 | O=[N+]([O-])c1ccc(Cc2nnc(-c3ccccc3Cl)o2)cc1 | 27.1% |  | 0.092 µM [rising, partial curve, poor fit]
49 | O=c1c2[nH]c3ccc(Cl)cc3c2ncn1Cc1ccccn1 | 201% | 23.1 µM [rising, partial curve] | 
50 | Cc1csc(NC(=O)CSc2nc(C(C)C)nc3c2c(=O)n(C)c(=O)n3C)n1 | -47.5% | 18.4 µM [falling, single point] | 20.6 µM [falling, partial curve]
51 | Cc1nnc(SCCC#N)n(CCC#N)c1=O | 1.69% |  | 
52 | O=C(c1ccc(CSc2nc3ccncc3[nH]2)cc1)N1CCCCC1 | 10.4% |  | 2.31 µM [rising, partial curve]
53 | COc1cccc(NC(=O)Cc2ccccc2)c1 | 6.24% |  | 0.731 µM [falling, full curve]
54 | CCCCC(=O)NC(Nc1ccc(C)cn1)(C(=O)OCC)C(F)(F)F (stereo unspecified) | -23.7% |  | 9.2 µM [falling, partial curve]
55 | COc1ccc(NC(=O)c2noc(C(C)C)c2[N+](=O)[O-])cc1 | -4.28% |  | 
56 | CCCCC(=O)Nc1ccc(C(=O)Nc2ccc(S(=O)(=O)Nc3nccc(C)n3)cc2)cc1 | -100% | 4.11 µM [falling, partial curve] | 
